Here are results for 5 molecules from paper PMC10907362.

No constants are given. Whether binding was seen depends on the method and setting. Binding seen in cells or lysates may run through a third protein. Here binding means that the protein was enriched with, or labelled near, the bait; the list need not be complete. Where a sequence is shown, tags or fusion partners need not be part of it.

First the molecules themselves.
T1: Flag-USP40 (in HLMVECs) (human) (UniProt Q9NVE5)
T1 sequence: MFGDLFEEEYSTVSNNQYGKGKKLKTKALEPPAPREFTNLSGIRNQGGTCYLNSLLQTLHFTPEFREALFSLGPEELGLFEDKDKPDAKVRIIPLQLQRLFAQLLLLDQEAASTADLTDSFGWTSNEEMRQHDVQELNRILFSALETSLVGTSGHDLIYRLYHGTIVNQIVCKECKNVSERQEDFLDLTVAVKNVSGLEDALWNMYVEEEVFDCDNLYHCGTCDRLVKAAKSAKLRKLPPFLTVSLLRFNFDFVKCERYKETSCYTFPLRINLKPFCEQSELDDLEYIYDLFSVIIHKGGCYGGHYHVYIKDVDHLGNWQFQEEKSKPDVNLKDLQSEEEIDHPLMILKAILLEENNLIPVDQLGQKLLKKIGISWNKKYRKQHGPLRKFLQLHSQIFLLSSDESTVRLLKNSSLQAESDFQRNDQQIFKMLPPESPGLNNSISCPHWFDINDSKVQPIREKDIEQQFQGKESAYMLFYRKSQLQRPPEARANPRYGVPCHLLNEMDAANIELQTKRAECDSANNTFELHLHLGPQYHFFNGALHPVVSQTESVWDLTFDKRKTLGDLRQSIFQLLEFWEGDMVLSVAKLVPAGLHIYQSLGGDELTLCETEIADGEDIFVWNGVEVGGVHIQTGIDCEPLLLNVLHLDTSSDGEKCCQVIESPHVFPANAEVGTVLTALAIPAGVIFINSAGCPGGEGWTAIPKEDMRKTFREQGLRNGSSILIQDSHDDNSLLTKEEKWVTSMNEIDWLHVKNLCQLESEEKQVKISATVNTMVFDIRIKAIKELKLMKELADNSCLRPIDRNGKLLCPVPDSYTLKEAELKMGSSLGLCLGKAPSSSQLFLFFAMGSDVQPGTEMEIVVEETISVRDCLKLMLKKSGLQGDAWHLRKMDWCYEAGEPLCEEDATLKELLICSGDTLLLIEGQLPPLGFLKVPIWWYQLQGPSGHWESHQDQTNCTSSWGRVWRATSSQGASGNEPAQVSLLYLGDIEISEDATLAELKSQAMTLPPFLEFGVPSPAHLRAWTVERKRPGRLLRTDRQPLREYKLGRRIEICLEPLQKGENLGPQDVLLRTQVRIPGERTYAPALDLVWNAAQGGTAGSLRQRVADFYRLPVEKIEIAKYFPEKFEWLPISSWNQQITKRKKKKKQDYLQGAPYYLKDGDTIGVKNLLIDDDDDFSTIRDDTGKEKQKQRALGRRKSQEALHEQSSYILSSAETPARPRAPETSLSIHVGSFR

B1: Interferon-induced GTP-binding protein Mx1 (protein, UniProt P20591 1-662)
chain: MVVSEVDIAKADPAAASHPLLLNGDATVAQKNPGSVAENNLCSQYEEKVRPCIDLIDSLRALGVEQDLALPAIAVIGDQSSGKSSVLEALSGVALPRGSGIVTRCPLVLKLKKLVNEDKWRGKVSYQDYEIEISDASEVEKEINKAQNAIAGEGMGISHELITLEISSRDVPDLTLIDLPGITRVAVGNQPADIGYKIKTLIKKYIQRQETISLVVVPSNVDIATTEALSMAQEVDPEGDRTIGILTKPDLVDKGTEDKVVDVVRNLVFHLKKGYMIVKCRGQQEIQDQLSLSEALQREKIFFENHPYFRDLLEEGKATVPCLAEKLTSELITHICKSLPLLENQIKETHQRITEELQKYGVDIPEDENEKMFFLIDKVNAFNQDITALMQGEETVGEEDIRLFTRLRHEFHKWSTIIENNFQEGHKILSRKIQKFENQYRGRELPGFVNYRTFETIVKQQIKALEEPAVDMLHTVTDMVRLAFTDVSIKNFEEFFNLHRTAKSKIEDIRAEQEREGEKLIRLHFQMEQIVYCQDQVYRGALQKVREKELEEEKKKKSWDFGAFQSSSATDSSMEEIFQHLMAYHQEASKRISSHIPLIIQFFMLQTYGQQLQKAMLQLLQDKDTYSWLLKERSDTSDKRKFLKERLARLTQARRRLAQFPG
B2: Interferon-induced GTP-binding protein Mx2 (protein, UniProt P20592 1-715)
chain: MSKAHKPWPYRRRSQFSSRKYLKKEMNSFQQQPPPFGTVPPQMMFPPNWQGAEKDAAFLAKDFNFLTLNNQPPPGNRSQPRAMGPENNLYSQYEQKVRPCIDLIDSLRALGVEQDLALPAIAVIGDQSSGKSSVLEALSGVALPRGSGIVTRCPLVLKLKKQPCEAWAGRISYRNTELELQDPGQVEKEIHKAQNVMAGNGRGISHELISLEITSPEVPDLTIIDLPGITRVAVDNQPRDIGLQIKALIKKYIQRQQTINLVVVPCNVDIATTEALSMAHEVDPEGDRTIGILTKPDLMDRGTEKSVMNVVRNLTYPLKKGYMIVKCRGQQEITNRLSLAEATKKEITFFQTHPYFRVLLEEGSATVPRLAERLTTELIMHIQKSLPLLEGQIRESHQKATEELRRCGADIPSQEADKMFFLIEKIKMFNQDIEKLVEGEEVVRENETRLYNKIREDFKNWVGILATNTQKVKNIIHEEVEKYEKQYRGKELLGFVNYKTFEIIVHQYIQQLVEPALSMLQKAMEIIQQAFINVAKKHFGEFFNLNQTVQSTIEDIKVKHTAKAENMIQLQFRMEQMVFCQDQIYSVVLKKVREEIFNPLGTPSQNMKLNSHFPSNESSVSSFTEIGIHLNAYFLETSKRLANQIPFIIQYFMLRENGDSLQKAMMQILQEKNRYSWLLQEQSETATKRRILKERIYRLTQARHALCQFSSKEIH
B3: Isoform 12 of Sorbin and SH3 domain-containing protein 2 (protein, UniProt O94875-12 1-731)
chain: MSVTLTSVKRVQSSPNLLAAGRDSQSPDSAWRSYNDGNQETLNGDATYSSLAAKGFRSVRPNLQDKRSPTQSQITVNGNSGGAVSPMSYYQRPFSPSAYSLPASLNSSIVMQHGTSLDSTDTYPQHAQSLDGTTSSSIPLYRSSEEEKRVTVIKAPHYPGIGPVDESGIPTAIRTTVDRPKDWYKTMFKQIHMVHKPDDDTDMYNTPYTYNAGLYNPPYSAQSHPAAKTQTYRPLSKSHSDNSPNAFKDASSPVPPPHVPPPVPPLRPRDRSSTEKHDWDPPDRKVDTRKFRSEPRSIFEYEPGKSSILQHERPPPLPTTPTPVPREPGRKPLSSSRLGEVTGSPSPPPRSGAPTPSSRAPALSPTRPPKKPLDYVQDHSSGVFNEASLYQSSIDRSLERPMSSASMASDFRKRRKSEPAVGPPRGLGDQSASRTSPGRVDLPGSSTTLTKSFTSSSPSSPSRAKDRESPRSYSSTLTDMGRSAPRERRGTPEKEKLPAKAVYDFKAQTSKELSFKKGDTVYILRKIDQNWYEGEHHGRVGIFPISYVEKLTPPEKAQPARPPPPAQPGEIGEAIAKYNFNADTNVELSLRKGDRVILLKRVDQNWYEGKIPGTNRQGIFPVSYVEVVKKNTKGAEDYPDPPIPHSYSSDRIHSLSSNKPQRPVFTHENIQGGGEPFQALYNYTPRNEDELELRESDVIDVMEKCDDGWFVGTSRRTKFFGTFPGNYVKRL
B4: Thyroid hormone receptor-associated protein 3 (protein, UniProt Q9Y2W1 1-955)
chain: MSKTNKSKSGSRSSRSRSASRSRSRSFSKSRSRSRSLSRSRKRRLSSRSRSRSYSPAHNRERNHPRVYQNRDFRGHNRGYRRPYYFRGRNRGFYPWGQYNRGGYGNYRSNWQNYRQAYSPRRGRSRSRSPKRRSPSPRSRSHSRNSDKSSSDRSRRSSSSRSSSNHSRVESSKRKSAKEKKSSSKDSRPSQAAGDNQGDEAKEQTFSGGTSQDTKASESSKPWPDATYGTGSASRASAVSELSPRERSPALKSPLQSVVVRRRSPRPSPVPKPSPPLSSTSQMGSTLPSGAGYQSGTHQGQFDHGSGSLSPSKKSPVGKSPPSTGSTYGSSQKEESAASGGAAYTKRYLEEQKTENGKDKEQKQTNTDKEKIKEKGSFSDTGLGDGKMKSDSFAPKTDSEKPFRGSQSPKRYKLRDDFEKKMADFHKEEMDDQDKDKAKGRKESEFDDEPKFMSKVIGANKNQEEEKSGKWEGLVYAPPGKEKQRKTEELEEESFPERSKKEDRGKRSEGGHRGFVPEKNFRVTAYKAVQEKSSSPPPRKTSESRDKLGAKGDFPTGKSSFSITREAQVNVRMDSFDEDLARPSGLLAQERKLCRDLVHSNKKEQEFRSIFQHIQSAQSQRSPSELFAQHIVTIVHHVKEHHFGSSGMTLHERFTKYLKRGTEQEAAKNKKSPEIHRRIDISPSTFRKHGLAHDEMKSPREPGYKAEGKYKDDPVDLRLDIERRKKHKERDLKRGKSRESVDSRDSSHSRERSAEKTEKTHKGSKKQKKHRRARDRSRSSSSSSQSSHSYKAEEYTEETEEREESTTGFDKSRLGTKDFVGPSERGGGRARGTFQFRARGRGWGRGNYSGNNNNNSNNDFQKRNREEEWDPEYTPKSKKYYLHDDREGEGSDKWVSRGRGRGAFPRGRGRFMFRKSSTSPKWAHDKFSGEEGEIEDDESGTENREEKDNIQPTTE
B5: Isoform 2 of Leucine zipper protein 1 (protein, UniProt Q86V48-2 1-1026)
chain: MAEFTSYKETASSRHLRFKLQSLSRRLDELEEATKNLQKAEDELLDLQDKVIQAEGSNSSMLAEIEVLRQRVLRIEGKDEEIKRAEDLCRLMKEKLEEEENLTRELKSEIERLQKRMAELEKLEEAFSRSKNDCTQLCLSLNEERNLTKKISSELEMLRVKVKELESSEDRLDKTEQSLASELEKLKSLTLSFVSERKYLNEKEKENEKLIKELTQKLEQNKKMNRDYTRNASNLERNDLRIEDGISSTLPSKESRRKGGLDYLKQVENETRNKSENEKNRNQEDNKVKDLNQEIEKLKTQIKHFESLEEELKKMKSKNNDLQDNYLSEQNKNKLLASQLEEIKLQIKKQKELENGEVEGEDAFLSSKGRHERTKFRGHGSEASVSKHTARELSPQHKRERLRNREFALNNENYSLSNRQVSSPSFTNRRAAKASHMGVSTDSGTQETKKTEDRFVPGSSQSEGKKSREQPSVLSRYPPAAQEHSKAWKGTSKPGTESGLKGKVEKTTRTFSDTTHGSVPSDPLGRADKASDTSSETVFGKRGHVLGNGSQVTQAANSGCSKAIGALASSRRSSSEGLSKGKKAANGLEADNSCPNSKAPVLSKYPYSCRSQENILQGFSTSHKEGVNQPAAVVMEDSSPHEALRCRVIKSSGREKPDSDDDLDIASLVTAKLVNTTITPEPEPKPQPNSREKAKTRGAPRTSLFENDKDAGMENESVKSVRASTNTMELPDTNGAGVKSQRPFSPREALRSRAIIKPVIVDKDVKKIMGGSGTETTLEKQKPVSKPGPNKVTSSITIYPSDSSSPRAAPGEALRERHTSTSNIQVGLAELTSVSNHVSSPFELSIHKHDITLQLAEAERMADGPLKDRPETVVSRSSIIIKPSDPVERNSHAPPAETIRWKSHSAPSEVGFSDARHVTVRNAWKSRRDLKSLEDPPTRIGKNVESTNSNAYTQRSSTDFSELEQPRSCLFEQGTRRVGPSSGDAPEPSSRRTQSSLTVSEVLTRRNRVGDTITVAAWNHSASMSS

The target of the assay is T1, Flag-USP40 (in HLMVECs) (human). Put plainly: affinity purification with mass spectrometry; Flag-USP40 immunoprecipitated from transfected HLMVECs with FLAG-M2 affinity gel; eluted under reducing conditions, SDS-PAGE, Coomassie, bands excised, in-gel trypsin digestion, LC-MS.
Consider B1, for which the binding entry is “binds”.
Take B2: the binding result is on record as “binds”.
Turning to B3, the binding result is “binds”.
The value for B4 was “binds”.
The value for B5 was “binds”.
